Data as given in publication PMC9122589.
The exact form of at least one protein or probe is not confirmed. For some assays here: Weaker means in comparison with the reference protein, sequence or condition of that experiment. For some assays here: At least one verdict rests on a figure or table, not on a statement of the authors.

What was measured:
[1] = target: T1, BrxR (untagged WT) (Acinetobacter sp. NEB394) (UniProt A0A7H8SL41); assay: EMSA; settings: EMSA: 20 mM Tris pH 7.9, 40 mM NaCl, 2.5% sucrose, 22 C, 30 min, 20 nM DNA (10 nM in Fig S6), 25-800 nM BrxR, 7% native gel in TBE, recombinant protein, protein details: N-terminal His6 removed by thrombin
[2] = target: T1, BrxR (untagged WT) (Acinetobacter sp. NEB394); assay: crystal structure (2.3 A); settings: recombinant protein; protein details: N-terminal His6 removed by thrombin

## TTACGCTGGAGTCTGAGGCTCGTCCTGAATGATATATACCGTAAAAATAATTTACTGTATGATCTTACGGCATTATACGTATGATCGGTCCACGACAGC (double strand) [Fig 6D panel 1, WT target in random flanks (99 bp)]
[1]
  binding result: binds

## TTACGCTGGAGTCTGAGGCTCGTCCTGAATGATATATACCCTAAAAATAATTTAGTGTATGATCTTACGGCATTATACGTATGATCGGTCCACGACAGC (double strand)
[1]
  binding result: binds more weakly

## ATACCGTAAAAATAATTTACTGTAT (double strand) [25 bp BrxR target, crystal]
[2]
  binding result: binds

## TTACGCTGGAGTCTGAGGCTCGTCCTGAATGATATATCCCGTAAAAATAATTTACTGGATGATCTTACGGCATTATACGTATGATCGGTCCACGACAGC (double strand) [Fig 6D panel 2, +/-10 substitutions]
[1]; negligible effect vs WT target
  binding result: binds

## TTACGCTGGAGTCTGAGGCTCGTCCTGAATGATATATACCGCAAAAATAATTTCCTGTATGATCTTACGGCATTATACGTATGATCGGTCCACGACAGC (double strand)
[1]
  binding result: binds more weakly
